Experimental data taken from publication PMC12153170.

The chains behind the UniProt entries cited, without tags or fusion partners. Where a name states a change or a piece, a line headed by the entry shows the natural chain unless it says otherwise.
UniProt P31955: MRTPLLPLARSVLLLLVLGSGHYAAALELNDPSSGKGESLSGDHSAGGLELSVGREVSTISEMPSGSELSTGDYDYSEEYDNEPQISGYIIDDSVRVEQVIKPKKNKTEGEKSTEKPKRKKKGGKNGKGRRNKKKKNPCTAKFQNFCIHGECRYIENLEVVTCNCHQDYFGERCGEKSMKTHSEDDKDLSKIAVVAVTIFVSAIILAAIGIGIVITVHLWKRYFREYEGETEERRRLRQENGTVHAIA

Biological target: Amphiregulin (mouse (endogenous in infarcted heart tissue)) (UniProt P31955)
Experiment: co-IP; endogenous proteins, infarcted heart tissue 7 days post-AMI (the legend of Fig. 5F says CMECs); which protein was precipitated is not told

binding: binds
B1: Forkhead Box Protein M1 (protein, UniProt O08696 1-760)
chain: MRTSPRRPLILKRRRLPLPVQNAPSETSEEEAKRSPAQPEPAPAQASQEVAESSSCKFPAGIKIINHPTTPNTQVVAIPSNADIQSIITALTAKGKESGTSGPNRFILISSGGPSSHPSQPQAHSSRDSKRAEVITETLGPKPAAKGVPVPKPPGAPPRQRQESYAGGEAAGCTLDNSLTNIQWLGKMSSDGLGPCSVKQELEEKENCHLEQNRVKVEEPSGVSTSWQDSVSERPPYSYMAMIQFAINSTERKRMTLKDIYTWIEDHFPYFKHIAKPGWKNSIRHNLSLHDMFVRETSANGKVSFWTIHPSANRHLTLDQVFKPLEPGSPQSPEHLESQQKRPNPELHRNVTIKTEIPLGARRKMKPLLPRVSSYLEPIQFPVNQSLVLQPSVKVPFRLAASLMSSELARHSKRVRIAPKVLLSSEGIAPLPATEPPKEEKPLLGGEGLLPLLPIQSIKEEEMQPEEDIAHLERPIKVESPPLEEWPSPCASLKEELSNSWEDSSCSPTPKPKKSYCGLKSPTRCVSEMLVTKRREKREVSRSRRKQHLQPPCLDEPDLFFPEDSSTFRPAVELLAESSEPAPHLSCPQEEGGPFKTPIKETLPVSSTPSKSVLSRDPESWRLTPPAKVGGLDFSPVRTPQGAFGLLPDSLGLMELNTTPLKSGPLFDSPRELLNSEPFDLASDPFGSPPPPHVEGPKPGSPELQIPSLSANRSLTEGLVLDTMNDSLSKILLDISFPGLEEDPLGPDNINWSQFIPELR

Results are given in words; binding and its absence hold for the method and conditions named. Binding seen in cells or lysates may run through a third protein. Binding can be weak; no strength is given.
